According to US20240109925A1, “Enhanced Anti-Proliferative and Antitumor Immune Effects of Mitochondria-Targeted Hydroxyurea” (The Medical College of Wisconsin, Inc., priority 2021, published 2024):
For part of these data: The name of at least one read-out is uncertain. Some results were stated once for a whole list of compounds, not compound by compound. Some compounds share one range, which may span the group rather than tell each member.

Protein sequences, listed by entry. Tags and fused reporters are not part of them. Lines headed by an entry give the natural chain unless they say otherwise; changes in a name come on top.
UniProt O75251: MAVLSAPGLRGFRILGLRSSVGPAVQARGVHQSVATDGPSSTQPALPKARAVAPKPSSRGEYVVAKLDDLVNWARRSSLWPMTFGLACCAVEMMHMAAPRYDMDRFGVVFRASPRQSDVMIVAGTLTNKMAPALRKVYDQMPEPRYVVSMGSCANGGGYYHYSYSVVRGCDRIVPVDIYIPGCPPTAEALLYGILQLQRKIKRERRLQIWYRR
UniProt O75306: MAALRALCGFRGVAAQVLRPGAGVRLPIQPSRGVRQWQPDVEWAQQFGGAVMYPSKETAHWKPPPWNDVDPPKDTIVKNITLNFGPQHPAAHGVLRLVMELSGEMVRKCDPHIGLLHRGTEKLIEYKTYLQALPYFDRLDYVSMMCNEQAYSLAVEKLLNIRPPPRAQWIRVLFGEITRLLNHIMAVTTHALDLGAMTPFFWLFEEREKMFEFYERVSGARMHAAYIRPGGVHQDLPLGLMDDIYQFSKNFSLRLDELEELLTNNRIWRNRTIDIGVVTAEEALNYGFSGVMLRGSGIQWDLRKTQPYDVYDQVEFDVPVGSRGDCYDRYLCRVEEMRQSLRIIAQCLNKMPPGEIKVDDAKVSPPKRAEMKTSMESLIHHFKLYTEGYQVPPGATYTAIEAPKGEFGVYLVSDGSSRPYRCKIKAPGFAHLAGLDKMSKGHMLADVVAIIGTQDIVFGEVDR
UniProt P03886: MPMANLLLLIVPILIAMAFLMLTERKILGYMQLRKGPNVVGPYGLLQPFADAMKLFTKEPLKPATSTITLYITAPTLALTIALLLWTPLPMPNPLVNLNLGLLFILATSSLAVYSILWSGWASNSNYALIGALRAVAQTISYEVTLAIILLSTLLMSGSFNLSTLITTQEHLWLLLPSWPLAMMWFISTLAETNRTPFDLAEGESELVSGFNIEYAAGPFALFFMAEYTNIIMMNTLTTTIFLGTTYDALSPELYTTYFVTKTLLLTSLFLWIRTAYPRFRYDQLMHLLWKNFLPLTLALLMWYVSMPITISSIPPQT
UniProt P00156: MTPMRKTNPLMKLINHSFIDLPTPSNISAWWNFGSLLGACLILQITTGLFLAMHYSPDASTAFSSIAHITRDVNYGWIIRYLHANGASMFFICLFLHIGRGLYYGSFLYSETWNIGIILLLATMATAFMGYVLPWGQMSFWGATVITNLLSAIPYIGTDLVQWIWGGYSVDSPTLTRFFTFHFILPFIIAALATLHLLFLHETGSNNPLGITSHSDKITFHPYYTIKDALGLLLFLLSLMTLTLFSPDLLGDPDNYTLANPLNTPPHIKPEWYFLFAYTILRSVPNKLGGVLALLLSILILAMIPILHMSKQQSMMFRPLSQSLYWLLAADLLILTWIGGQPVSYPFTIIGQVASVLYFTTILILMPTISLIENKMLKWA
UniProt P47985: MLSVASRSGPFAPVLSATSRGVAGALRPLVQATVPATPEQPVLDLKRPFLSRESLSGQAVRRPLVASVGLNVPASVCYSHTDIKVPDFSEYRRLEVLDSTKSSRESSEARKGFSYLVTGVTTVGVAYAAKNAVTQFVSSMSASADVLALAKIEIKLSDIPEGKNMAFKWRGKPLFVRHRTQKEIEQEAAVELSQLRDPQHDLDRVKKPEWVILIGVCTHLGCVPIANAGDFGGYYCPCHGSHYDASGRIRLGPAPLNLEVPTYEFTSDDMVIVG

Tests used:
Format in all cases: cell-based
[1] = biological target: mitochondrial complex I (Homo sapiens, UniProt O75251+O75306+P03886); assay: Complex I-dependent oxygen consumption (OCR), Seahorse XF-96, MiaPaCa-2 cells; settings: MiaPaCa-2, 24 hr
[2] = biological target: T1, mitochondrial complex III (Homo sapiens, UniProt P00156+P47985); assay: Complex III-dependent oxygen consumption (OCR), Seahorse XF-96, MiaPaCa-2 cells; settings: MiaPaCa-2, 24 hr
T1 construct: other: mean ± SD; HCT116, 24 hr treatment; Complex III activity (OCR, % of control); other: 0.1 μM, 24 hr, HCT116; n = 4; other: 0.5 μM, 24 hr, HCT116; other: 0.75 μM, 24 hr, HCT116; other: 1 μM, 24 hr, HCT116; Compl

[3] = test system: HCT116 human colon cancer cells; assay: Cell proliferation (cell confluence), IncuCyte Live-Cell Analysis system
Excerpt: FIG. 1. Effects of HU and Mito-HUs on proliferation of HCT116 human colon cancer cells (A) Effects of HU and Mito-HUs on the proliferation of HCT116 cells were monitored in the IncuCyte Live-Cell Analysis system. The IncuCyte Analyzer provides real-time updates on cell confluence, based on segmentation of high definition-phase contrast images. Representative cell images were shown as segmentation mask illustrated in brown when control cells reached 90% confluence (vertical solid black line). (B) The IC50 values were determined at the point at which control cells reached ˜90% confluence (vertical solid black line). Relative cell confluence (control is taken as 100%) is plotted against concentration. Dashed lines represent the fitting curves used to determine the IC50 values as indicated. Data shown are the means & SD.
The following cell lines were obtained from the American Type Culture Collection (Manassas, VA), where they were regularly authenticated: HCT116 (ATCC Cat #CRL-247, human colon cancer cells) and MiaPaCa-2 (ATCC Cat #CRL-1420, human pancreatic cancer cells). All cells were cultured in a humidified incubator at 37° C. and 5% carbon dioxide. HCT116 cells were maintained in RPMI 1640 medium (Thermo Fisher Scientific, Cat #11875), supplemented with 10% fetal bovine serum. MiaPaCa-2 cells were maintained in Dulbecco's Modified Eagle Medium (Thermo Fisher Scientific, Waltham, MA; Cat #11965) supplemented with 10% fetal bovine serum. All cells were stored in liquid nitrogen and used within 20 passages after thawing.
The IncuCyte Live-Cell Analysis system (Essen Bioscience Inc., Ann Arbor, MI) was used to monitor cell proliferation (Cheng et al., 2013, 2016; Boyle et al., 2018). As shown in previous publications (Cheng et al., 2013, 2016), this imaging system is probe-free and noninvasive, and enables continuous monitoring of cell confluence over several days. The increase in the percentage of cell confluence was used as a surrogate marker of cell proliferation. In a 96-well plate, cells were plated at 1,000 cells per well in triplicates and left to adhere overnight. Cells were then treated with HU and Mito-HUs, and the cell confluency was recorded over several days in the IncuCyte Live-Cell Analysis system.

Structure (SMILES) | IC50 complex I-induced oxygen consumption in MiaPaCa-2 [1] | IC50 complex III-induced oxygen consumption in MiaPaCa-2 [2] | antiproliferative potency compared with HU [3]
NC(=O)NOCCCCCCCCCC[P+](c1ccccc1)(c1ccccc1)c1ccccc1.O=C([O-])C(F)(F)F [Mito10-HU, 10-[(carbamoylamino)oxy]-decyltriphenylphosphonium trifluoroacetate] | slightly lower than those reported for HCT116 cells | slightly lower than those reported for HCT116 cells | –
NC(=O)NOCCCCCCCCCCCC[P+](c1ccccc1)(c1ccccc1)c1ccccc1.O=C([O-])C(F)(F)F [Mito12-HU, 12-[(carbamoylamino)oxy]-dodecyltriphenylphosphonium trifluoroacetate] | – | – | 100-600 times
NC(=O)NOCCCCCCCCCCCCCC[P+](c1ccccc1)(c1ccccc1)c1ccccc1.O=C([O-])C(F)(F)F [Mito14-HU, 14-[(carbamoylamino)oxy]-tetradecyltriphenylphosphonium trifluoroacetate] | – | – | 100-600 times
NC(=O)NOCCCCCCCCCCCCCCCC[P+](c1ccccc1)(c1ccccc1)c1ccccc1.O=C([O-])C(F)(F)F [Mito16-HU, 16-[(carbamoylamino)oxy]-hexadecyltriphenylphosphonium trifluoroacetate] | – | – | 100-600 times
NC(=O)NOCCCCCCCCCCCCCCCCCCCC[P+](c1ccccc1)(c1ccccc1)c1ccccc1.O=C([O-])C(F)(F)F [Mito20-HU, 20-[(carbamoylamino)oxy]-eicosanyltriphenylphosphonium trifluoroacetate] | – | – | 100-600 times
